In publication PMC9630114 one finds binding data, which are given here for three substances.

Chains of the proteins cited; added tags and fusions are not shown. Lines headed by an entry give the natural chain unless they say otherwise; changes in a name come on top. Residues count along the entry.
UniProt Q9UM00: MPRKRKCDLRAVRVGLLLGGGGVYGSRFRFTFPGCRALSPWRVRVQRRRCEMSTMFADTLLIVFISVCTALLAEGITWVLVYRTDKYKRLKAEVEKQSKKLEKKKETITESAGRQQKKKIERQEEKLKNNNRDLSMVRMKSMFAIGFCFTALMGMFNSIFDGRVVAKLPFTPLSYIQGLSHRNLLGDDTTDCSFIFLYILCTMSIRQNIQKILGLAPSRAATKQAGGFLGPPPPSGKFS
UniProt Q969V3, residues 43-563: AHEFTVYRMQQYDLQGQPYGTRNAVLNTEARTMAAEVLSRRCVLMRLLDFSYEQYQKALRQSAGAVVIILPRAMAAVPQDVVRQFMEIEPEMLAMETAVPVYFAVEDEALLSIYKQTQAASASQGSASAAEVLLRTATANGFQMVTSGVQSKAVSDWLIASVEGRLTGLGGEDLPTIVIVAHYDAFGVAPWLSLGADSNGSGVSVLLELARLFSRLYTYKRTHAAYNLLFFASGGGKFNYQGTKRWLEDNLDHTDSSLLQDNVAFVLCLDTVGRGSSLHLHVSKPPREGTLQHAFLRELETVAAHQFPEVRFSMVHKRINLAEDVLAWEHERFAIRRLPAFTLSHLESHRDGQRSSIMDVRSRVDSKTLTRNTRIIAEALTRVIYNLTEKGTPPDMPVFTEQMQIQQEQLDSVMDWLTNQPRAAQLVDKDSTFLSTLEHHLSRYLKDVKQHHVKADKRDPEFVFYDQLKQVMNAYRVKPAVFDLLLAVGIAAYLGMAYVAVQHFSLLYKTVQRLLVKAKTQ
UniProt Q9BUV8: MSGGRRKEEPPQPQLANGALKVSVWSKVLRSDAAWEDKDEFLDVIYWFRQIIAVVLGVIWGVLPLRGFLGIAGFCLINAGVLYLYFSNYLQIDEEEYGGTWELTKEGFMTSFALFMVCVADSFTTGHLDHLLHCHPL
UniProt Q15155: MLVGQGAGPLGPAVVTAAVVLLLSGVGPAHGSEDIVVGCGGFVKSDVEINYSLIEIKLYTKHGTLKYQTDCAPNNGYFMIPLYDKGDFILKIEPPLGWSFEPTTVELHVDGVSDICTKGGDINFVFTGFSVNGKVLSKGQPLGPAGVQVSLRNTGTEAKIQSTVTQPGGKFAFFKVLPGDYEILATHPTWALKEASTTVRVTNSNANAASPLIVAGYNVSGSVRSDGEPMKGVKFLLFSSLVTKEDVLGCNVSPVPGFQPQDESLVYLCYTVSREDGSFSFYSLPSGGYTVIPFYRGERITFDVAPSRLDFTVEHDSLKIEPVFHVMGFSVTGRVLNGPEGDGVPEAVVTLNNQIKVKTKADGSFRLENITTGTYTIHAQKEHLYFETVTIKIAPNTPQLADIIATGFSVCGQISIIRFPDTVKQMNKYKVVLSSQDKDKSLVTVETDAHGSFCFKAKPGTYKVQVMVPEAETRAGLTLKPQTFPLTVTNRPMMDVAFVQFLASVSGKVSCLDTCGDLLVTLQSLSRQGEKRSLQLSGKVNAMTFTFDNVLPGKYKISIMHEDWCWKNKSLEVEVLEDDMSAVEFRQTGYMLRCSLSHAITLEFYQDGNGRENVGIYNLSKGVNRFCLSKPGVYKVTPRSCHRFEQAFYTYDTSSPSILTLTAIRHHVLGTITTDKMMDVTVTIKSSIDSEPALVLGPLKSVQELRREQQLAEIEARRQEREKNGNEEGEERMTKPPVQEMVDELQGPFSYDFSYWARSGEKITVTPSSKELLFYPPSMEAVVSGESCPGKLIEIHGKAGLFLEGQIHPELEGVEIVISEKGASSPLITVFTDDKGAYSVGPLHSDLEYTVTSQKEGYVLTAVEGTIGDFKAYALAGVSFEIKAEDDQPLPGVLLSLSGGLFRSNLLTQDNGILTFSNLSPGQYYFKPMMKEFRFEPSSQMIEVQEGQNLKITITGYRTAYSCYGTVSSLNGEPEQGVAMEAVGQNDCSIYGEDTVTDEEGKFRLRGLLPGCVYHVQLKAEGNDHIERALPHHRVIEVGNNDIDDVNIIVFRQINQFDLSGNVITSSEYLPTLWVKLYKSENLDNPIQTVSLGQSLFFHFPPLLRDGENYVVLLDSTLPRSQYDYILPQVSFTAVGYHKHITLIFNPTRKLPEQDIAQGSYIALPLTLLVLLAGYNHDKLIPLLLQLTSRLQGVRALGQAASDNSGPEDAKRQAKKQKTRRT

Assay [1] has as its target N-terminally Flag-tagged TMCO1 (UniProt Q9UM00). Description: co-IP; anti-Flag (M2 beads) immunoprecipitation from nuclease-treated, digitonin-solubilized HEK293 microsomes, overnight at 4 °C, Flag-peptide elution, eluate pelleted through a sucrose cushion; ribosome-bound fraction (pellet); immunoblot.
Assay [2] has as its target T1, stalled, Flag-tagged YIPF1 construct truncated at position 183 (UniProt Q9Y548).
T1 sequence: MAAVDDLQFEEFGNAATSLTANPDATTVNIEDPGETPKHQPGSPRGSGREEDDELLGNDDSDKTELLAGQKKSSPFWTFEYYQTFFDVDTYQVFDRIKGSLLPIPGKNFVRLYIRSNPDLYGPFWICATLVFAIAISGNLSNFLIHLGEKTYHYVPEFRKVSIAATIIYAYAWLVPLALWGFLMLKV
As to the kind of experiment: co-IP; stalled N-terminally Flag-tagged nascent chains translated in RRL with HEK293 rough microsomes (wild type; in some panels ΔTN, ΔTC, ΔS or single knockouts), membranes nuclease-treated and digitonin-solubilized, anti-Flag immunoprecipitation, Flag-peptide elution, ribosome-nascent chain complexes pelleted through a sucrose cushion; immunoblot.

Assay [3] has as its target T2, stalled, Flag-tagged YIPF1 construct truncated at position 277 (UniProt Q9Y548).
T2 sequence: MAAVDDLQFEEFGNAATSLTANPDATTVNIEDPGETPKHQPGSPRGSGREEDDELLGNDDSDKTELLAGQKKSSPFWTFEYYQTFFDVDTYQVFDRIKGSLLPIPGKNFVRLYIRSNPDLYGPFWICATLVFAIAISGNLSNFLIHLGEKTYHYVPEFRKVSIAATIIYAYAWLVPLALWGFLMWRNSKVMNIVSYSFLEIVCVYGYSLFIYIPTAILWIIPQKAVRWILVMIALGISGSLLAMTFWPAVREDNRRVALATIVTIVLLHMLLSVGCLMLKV
The assay is described as above.

For assay [4], the target named is N-terminally Flag-tagged nicalin (UniProt Q969V3). Description: co-IP; anti-Flag (M2 beads) immunoprecipitation from nuclease-treated, digitonin-solubilized HEK293 microsomes, overnight at 4 °C, Flag-peptide elution, eluate pelleted through a sucrose cushion; ribosome-bound fraction (pellet); immunoblot.

These are yes or no findings as the source states them, for the method shown. In cells and extracts the contact can be indirect. For part of these data: Binding calls can cover weak binding; strength is not graded here. For part of these data: Where a sequence is shown, tags or fusion partners need not be part of it.

In the case of C20Orf24 (from UniProt Q9BUV8 1-137), in assay [1], the binding result is “binds”.

As for TMCO1 (from UniProt Q9UM00), the binding entry in assay [2] is reported as “no binding”; in assay [3], “binds”.

Take NOMO (from UniProt Q15155): the binding result in assay [4] is recorded as “binds”; in assay [2], “no binding”; in assay [3], “binds”.
